These are yes or no findings as the source states them, for the method shown. For some of these results: Binding seen in cells or lysates may run through a third protein. Some entries that bind do so weakly or less than the wild type. For some of these results: Sequences can lack the tags named with a protein.
Columns and labels:
[1] = molecular target: T1, HA-tagged PEAK3FL-S69A (human) (UniProt Q6ZS72); assay: co-IP; HEK293 cells transfected with HA-PEAK3^FL forms (alone or with Flag-PEAK3^FL WT), lysates on anti-HA agarose at 4 °C overnight, Western blot
T1 sequence: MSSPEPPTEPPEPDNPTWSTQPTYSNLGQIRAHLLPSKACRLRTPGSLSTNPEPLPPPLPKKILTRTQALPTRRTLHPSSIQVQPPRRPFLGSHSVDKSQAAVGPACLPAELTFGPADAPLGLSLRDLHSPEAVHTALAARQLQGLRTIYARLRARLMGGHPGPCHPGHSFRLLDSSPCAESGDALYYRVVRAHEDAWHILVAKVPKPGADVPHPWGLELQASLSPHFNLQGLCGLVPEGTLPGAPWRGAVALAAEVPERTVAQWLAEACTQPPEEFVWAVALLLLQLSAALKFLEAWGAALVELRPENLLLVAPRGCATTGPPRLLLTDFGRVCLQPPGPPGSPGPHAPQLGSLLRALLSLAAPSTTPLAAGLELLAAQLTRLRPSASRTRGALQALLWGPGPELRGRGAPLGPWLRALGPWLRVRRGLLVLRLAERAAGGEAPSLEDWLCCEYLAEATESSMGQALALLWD

[2] = molecular target: T1, HA-tagged PEAK3FL-S69A (human); assay: co-IP; anti-HA agarose IP from lysates of HEK293 cells expressing HA-PEAK3FL WT or mutants (alone or with Flag-PEAK3FL WT), Western blot
[3] = molecular target: T2, PEAK1IDR1 (PEAK1 residues 1082-1746) (human) (UniProt Q9H792); assay: SEC; Superdex 200 Increase 10/300, PEAK1IDR1 with CrkIIFL dimer at 1:1.3 molar ratio, pre-equilibrated 25 min at room temperature; SDS-PAGE of eluted fractions; both purified
T2 sequence: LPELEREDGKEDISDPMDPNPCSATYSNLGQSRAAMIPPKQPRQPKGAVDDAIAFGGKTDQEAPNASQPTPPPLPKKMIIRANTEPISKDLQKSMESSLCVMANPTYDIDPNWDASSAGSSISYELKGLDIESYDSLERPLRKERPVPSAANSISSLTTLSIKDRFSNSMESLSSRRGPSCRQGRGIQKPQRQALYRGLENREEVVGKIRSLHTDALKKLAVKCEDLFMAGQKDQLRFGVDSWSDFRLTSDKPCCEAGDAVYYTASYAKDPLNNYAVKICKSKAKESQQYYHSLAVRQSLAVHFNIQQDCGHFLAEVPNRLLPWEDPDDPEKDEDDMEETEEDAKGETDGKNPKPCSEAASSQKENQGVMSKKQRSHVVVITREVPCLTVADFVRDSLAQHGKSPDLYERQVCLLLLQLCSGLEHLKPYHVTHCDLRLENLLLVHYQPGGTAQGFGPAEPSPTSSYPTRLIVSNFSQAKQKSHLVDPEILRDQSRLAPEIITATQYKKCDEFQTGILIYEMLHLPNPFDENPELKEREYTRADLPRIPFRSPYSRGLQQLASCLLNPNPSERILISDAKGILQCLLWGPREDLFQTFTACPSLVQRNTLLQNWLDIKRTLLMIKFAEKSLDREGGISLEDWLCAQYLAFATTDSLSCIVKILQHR

[4] = molecular target: T3, PEAK2IDR1 (PEAK2 residues 802-1406) (human) (UniProt Q86YV5); assay: SEC-MALS; Superdex 200 Increase 10/300 GL, 20 mM HEPES pH 7.5, 150 mM NaCl, 1 mM TCEP, 0.5 ml/min; both purified
T3 sequence (chain, phosphorylated at the tandem site 14-3-3 motif (RAASSP) by LC MS/MS): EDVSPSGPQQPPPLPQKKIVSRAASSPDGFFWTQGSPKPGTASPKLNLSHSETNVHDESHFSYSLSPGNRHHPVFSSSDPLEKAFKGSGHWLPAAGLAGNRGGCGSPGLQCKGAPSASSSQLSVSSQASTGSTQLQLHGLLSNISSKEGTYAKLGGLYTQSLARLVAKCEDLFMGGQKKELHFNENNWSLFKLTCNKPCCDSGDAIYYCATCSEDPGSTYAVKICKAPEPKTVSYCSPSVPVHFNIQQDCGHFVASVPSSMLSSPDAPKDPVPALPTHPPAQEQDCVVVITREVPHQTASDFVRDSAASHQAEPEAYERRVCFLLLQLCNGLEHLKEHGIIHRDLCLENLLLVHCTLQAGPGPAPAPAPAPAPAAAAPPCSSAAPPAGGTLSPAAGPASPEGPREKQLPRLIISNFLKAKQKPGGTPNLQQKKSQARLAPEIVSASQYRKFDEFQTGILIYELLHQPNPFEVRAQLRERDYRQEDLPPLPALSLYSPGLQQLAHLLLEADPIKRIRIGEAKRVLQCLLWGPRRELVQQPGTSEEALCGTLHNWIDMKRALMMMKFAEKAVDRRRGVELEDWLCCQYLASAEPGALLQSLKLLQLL

Row | binding [1] | binding [2] | binding [3] | binding [4] | Substance
1 | binds | binds |  |  | endogenous CrkII (HEK293) (from UniProt P46108-1 1-304)
2 |  |  | binds | binds | full length CrkII, dimer (CrkIIFL dimer) (from UniProt P46108-1 1-304)

From publication PMC10279719
